Some of these results come from one statement about several compounds together.
Test system: P. yoelii
Assay: Single-dose ig efficacy after patent infection in mice
Assay type: in vivo
Details: vs controls
[1] = single ig dose 100 mg/kg, T2 HCl salt, T3.5 di-HCl salt

SMILES: CCN(CC)CCCC(C)Nc1ccnc2cc(Cl)ccc12 (stereo not drawn) [Chloroquine, reference compound]
- reduction of parasitemia at 48 hours (single ig dose 30 mg/kg): more than 80%

SMILES: CCN(CC)CCOc1ccc2c(=O)c3ccc(Cl)cc3[nH]c2c1 [T2, 3-(2-diethylaminoethoxy)-6-chloro-9-acridone]
- reduction of parasitemia at 48 hours [1]: more than 80%

SMILES: CCN(CC)CCOc1ccc2c(=O)c3ccc(Cl)cc3n(CCN(CC)CC)c2c1 [T3.5, 3-(2-diethylaminoethoxy)-6-chloro-10-(2-diethylaminoethyl)-9-acridone]
- reduction of parasitemia at 48 hours [1]: more than 80%

From patent US9399625B2, “Acridone compounds” (Oregon Health & Science University, priority 2006, dated 2016)
